For one substance, binding results are on record in article PMC6702741.

Chains of the proteins cited; added tags and fusions are not shown.
UniProt P51608: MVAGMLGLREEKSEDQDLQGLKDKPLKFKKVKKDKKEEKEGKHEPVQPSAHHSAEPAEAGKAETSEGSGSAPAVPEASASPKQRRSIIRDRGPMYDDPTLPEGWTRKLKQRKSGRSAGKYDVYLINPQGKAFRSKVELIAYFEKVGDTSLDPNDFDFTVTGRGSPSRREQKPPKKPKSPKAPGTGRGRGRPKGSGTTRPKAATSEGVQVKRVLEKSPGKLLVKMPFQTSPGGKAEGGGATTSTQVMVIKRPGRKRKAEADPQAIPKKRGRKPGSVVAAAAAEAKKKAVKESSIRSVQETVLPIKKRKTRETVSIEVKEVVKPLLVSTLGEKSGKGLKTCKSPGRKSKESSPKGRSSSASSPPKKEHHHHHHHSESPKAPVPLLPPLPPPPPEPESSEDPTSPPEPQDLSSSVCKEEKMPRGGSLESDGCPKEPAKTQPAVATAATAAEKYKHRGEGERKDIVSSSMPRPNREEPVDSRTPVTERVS

Results are given in words; binding and its absence hold for the method and conditions named. Binding seen in cells or lysates may run through a third protein. Some entries that bind do so weakly or less than the wild type.

For the test, the target named is T1, suppressor of variegation 39H1 (SUV39H1) (human (endogenous in glioma cells)) (UniProt O43463).
T1 sequence: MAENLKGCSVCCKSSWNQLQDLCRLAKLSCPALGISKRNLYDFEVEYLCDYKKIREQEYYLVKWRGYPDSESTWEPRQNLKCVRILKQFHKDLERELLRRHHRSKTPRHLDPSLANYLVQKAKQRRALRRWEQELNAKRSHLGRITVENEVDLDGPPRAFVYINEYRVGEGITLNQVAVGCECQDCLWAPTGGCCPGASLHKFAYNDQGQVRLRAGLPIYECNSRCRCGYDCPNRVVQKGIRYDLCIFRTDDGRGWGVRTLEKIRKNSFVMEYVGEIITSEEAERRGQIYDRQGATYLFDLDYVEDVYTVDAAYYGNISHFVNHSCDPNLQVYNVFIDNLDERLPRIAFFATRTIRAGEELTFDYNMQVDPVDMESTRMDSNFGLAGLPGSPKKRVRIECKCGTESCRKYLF
Put plainly: co-IP; endogenous proteins in glioma cells; complexes precipitated with protein A/G agarose, western blot with anti-MeCP2 and anti-SUV39H1; done in both directions. Background: A western blot detects proteins with antibodies after separation by electrophoresis.

In the case of “Methyl CpG-binding protein 2 (MeCP2) (from UniProt P51608 1-486)”, the binding result was “binds”.
